Source: PubChem BioAssay AID1671190 (National Center for Advancing Translational Sciences (NCATS), 2021)
About 6,100 (1.1%) of roughly 580,000 compounds were called active. Inconclusive results, whose numbers are uncertain, are shown with a selection of clear calls. The call rests on the fitted dose curve; in most records, active means well fitted inhibition curve with a large enough effect; inconclusive means small, poorly fitted or top-dose-only effect, or another doubt; inactive means no such curve, though single readings can be large or run the other way. Potencies of inconclusive entries are doubtful fits and often do not repeat.

By UniProt entry, the sequences of proteins in these tests, tags left out.
UniProt P18054, whole entry, looked up: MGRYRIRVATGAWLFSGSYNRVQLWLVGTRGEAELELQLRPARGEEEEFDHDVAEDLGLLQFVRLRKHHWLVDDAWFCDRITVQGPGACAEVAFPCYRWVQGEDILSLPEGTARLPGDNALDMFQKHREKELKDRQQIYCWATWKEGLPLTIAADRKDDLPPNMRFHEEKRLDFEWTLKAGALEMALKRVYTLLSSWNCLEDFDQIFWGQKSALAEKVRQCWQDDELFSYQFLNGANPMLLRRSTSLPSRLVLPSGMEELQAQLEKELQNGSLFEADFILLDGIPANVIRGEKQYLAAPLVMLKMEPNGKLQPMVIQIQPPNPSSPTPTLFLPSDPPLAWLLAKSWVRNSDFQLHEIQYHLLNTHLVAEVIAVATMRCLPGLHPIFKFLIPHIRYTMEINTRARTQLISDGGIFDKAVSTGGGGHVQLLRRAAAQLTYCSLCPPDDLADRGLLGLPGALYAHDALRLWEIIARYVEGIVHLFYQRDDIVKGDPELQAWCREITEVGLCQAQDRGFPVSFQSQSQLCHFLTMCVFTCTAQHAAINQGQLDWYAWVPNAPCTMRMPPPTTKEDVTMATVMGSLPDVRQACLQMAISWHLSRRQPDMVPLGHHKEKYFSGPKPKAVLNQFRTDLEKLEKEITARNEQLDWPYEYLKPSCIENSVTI

Each compound was assayed against Polyunsaturated fatty acid lipoxygenase ALOX12 (Homo sapiens) (UniProt P18054) (assay: Primary qHTS assay for inhibitors of human arachidonate 12S-lipoxygenase (ALOX12): Round 2). Details: purified 12hLO, xylenol orange hydroperoxide absorbance; activity change, negative = inhibition: at 108 µM (top of the series) unless noted.
Summary of the method: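 Purified human 12hLO (150 nM final) in 25 mM Hepes, 0.01% Triton X-100, pH 7.0 was preincubated 15 min at room temperature with compound. Then 40 uM arachidonic acid was added, 30 min. Hydroperoxide was read by Fe-XO absorbance ratio 573/405 nm.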
On the % scale 0 is the no-effect control and ±100 the full control effect; potency means the concentration at half of the fitted maximal effect.

| SMILES | Potency | activity change, negative = inhibition |
| --- | --- | --- |
| CCC[C@H]1[C@@H](NC(=O)Nc2ccc(OC)cc2)CC[C@@]23CCCN2C(=O)CCC[C@@H]13 | inconclusive: 141 µM [inhibitor, single point] | – |
| O=C(c1ccccc1)c1sc(N2CCOCC2)nc1-c1ccccc1 | – | inactive: -10.8% |
| CCc1nnc(SCC(=O)Nc2cc(Cl)ccc2C)n1-n1cccc1 | – | inactive: 30.2% |
| CCc1ccc(N2CC(C(=O)OCC(=O)Nc3ccc(C#N)cc3)CC2=O)cc1 (stereo not given) | inconclusive: 89.1 µM [inhibitor, single point] | – |
| N#Cc1ccc(OCC(=O)Nc2nc(-c3ccncc3)cs2)cc1 | – | inactive: -2.65% |
| CC(NC(=O)c1cc(S(=O)(=O)N(C)C)ccc1Cl)C1CC2CCC1C2 (stereo not given) | – | inactive: 0.414% |
| CN1C[C@@H]2[C@@H]3C(=O)N(C)C(=O)[C@@H]3[C@](Cc3ccccc3)(C1=O)N2C(=O)c1ccc(F)cc1 | inconclusive: 89.1 µM [inhibitor, single point] | – |
| COc1ccc(C2C(=O)N(C3CCCCC3)CC(=O)N2CCc2ccc(C)cc2)cc1OC (stereo not given) | inconclusive: 126 µM [inhibitor, single point] | – |
| O=C(Nc1ccc(Cl)cc1)N1CCCC(c2nn(-c3ccc(F)cc3)c(=O)[nH]2)C1 (stereo not given) | inconclusive: 22.4 µM [inhibitor, full curve] | – |
| Brc1ccc(NC2=Nc3ccccc3CC2)cc1 | – | inactive: -0.176% |
| O=C1[C@H]2[C@@H](c3ccc(C(F)(F)F)cc3)N[C@]3(CCCN(CC4CCCCC4)C3=O)[C@H]2C(=O)N1Cc1ccccc1 | inconclusive: 39.8 µM [inhibitor, partial curve, poor fit] | – |
| Cc1ccc(C)c(Oc2nc(-c3ccncc3)nc3ccccc23)c1 | – | inactive: -6.14% |
| Cc1ccc(CSCC(=O)N/N=C/c2sccc2C)cc1 | inconclusive: 39.8 µM [inhibitor, partial curve, poor fit] | – |
| Fc1cccc(F)c1-c1nc2c(s1)CCc1onc(-c3ccc(Br)cc3)c1-2 | active: 14.1 µM | – |
| Cc1oc2c(c1C(=O)N1CCN(C3CCCC3)CC1)CN(Cc1cccc(F)c1)CC2 | active: 8.91 µM | – |
| CCOC(=O)C1=C[C@@H](c2ccccc2)N(S(=O)(=O)c2ccc(C)cc2)[C@H]1c1ccc(F)cc1 | – | inactive: -4.11% |
| COc1cc(C2C(C(=O)c3ccc(C)o3)=C(O)C(=O)N2CCc2ccccc2)ccc1O (stereo not given) | active: 35.5 µM | – |
| CCOc1ccccc1Nc1nc(-c2cc3cc(Cl)ccc3oc2=O)cs1 | inconclusive: 6.31 µM [inhibitor, full curve] | – |
| Cc1ccc(CN2C(=O)C(O)(c3c(C)[nH]c4ccccc34)c3ccccc32)cc1 (stereo not given) | inconclusive: 50.1 µM [inhibitor, partial curve, poor fit] | – |
| O=C(c1ccccc1)N1CC(=O)N2[C@@H](CO)[C@@H](c3ccc(Br)cc3)[C@@H]2C1 | inconclusive: 89.1 µM [inhibitor, single point] | – |
| COc1ccc(OC)c(NC(=O)C2CC(=O)N(c3n[nH]c4cccc(F)c34)C2)c1 (stereo not given) | inconclusive: 79.4 µM [inhibitor, partial curve, poor fit] | – |
| O=C(COC(=O)C1=COCCO1)Nc1ncc(C(F)(F)F)cc1Cl | inconclusive: 31.6 µM [inhibitor, single point] | – |
| Cc1cc(C(=O)OCc2ccccc2C#N)c(C)o1 | – | inactive: -25.6% |

| SMILES | Potency | activity change, negative = inhibition |
| --- | --- | --- |
| CCOC(=O)Cn1c(=N)n(Cc2ccc(C(C)(C)C)cc2)c2ccccc21 | inconclusive: 17.8 µM [inhibitor, partial curve, poor fit] | – |
| COc1ccc(-c2nc3ccccc3o2)cc1NC(=O)CC(C)C | inconclusive: 35.5 µM [inhibitor, partial curve, poor fit] | – |
| CCc1nc2c(OCC(N)=O)cccn2c1N(C)C(=O)c1cccs1 | – | inactive: -38.7% |
| O=C(Nc1cccnc1Cl)C1CCCCC1 | – | inactive: 12.5% |
| CCCCNC(=S)N(C)N=C1CCC(c2ccccc2)CC1 (stereo not given) | inconclusive: 50.1 µM [inhibitor, partial curve, poor fit] | – |
| CCc1ccc(CN(Cc2cccnc2)C(=O)/C=C/c2ccc(OC)cc2)cc1 | inconclusive: 79.4 µM [inhibitor, partial curve, poor fit] | – |
| CNC(=O)Nc1cc(C(F)(F)F)cc(C(F)(F)F)c1 | inconclusive: 112 µM [inhibitor, single point] | – |
| CCNc1c(NC(=O)Nc2ccccc2C)c(=O)oc2ccccc12 | inconclusive: 89.1 µM [inhibitor, partial curve, poor fit] | – |
| O=C(Cc1cc(=O)[nH][nH]1)N/N=C/c1ccccc1Cl | inconclusive: 79.4 µM [inhibitor, single point] | – |
| CN1CCC(CNC(=O)Nc2csc3ccccc23)CC1 | active: 39.8 µM | – |
| Cc1ccc2c(=O)cc(C(=O)Nc3ccc4nsnc4c3)oc2c1 | – | inactive: -5.73% |
| Cc1cc(NC(=O)C(C)OC(=O)/C(=C/c2cccs2)c2cccs2)on1 (stereo not given) | inconclusive: 112 µM [inhibitor, partial curve, poor fit] | – |
| Cc1nn(-c2ccc(F)cc2)c(C)c1[C@@H]1C=C[C@@H](NC(=O)CC(C)(C)CC(=O)O)C1 | active: 20 µM | – |
| O=C1CC(c2ccccc2)N(C(=O)C2CC2)CCCN(C(=O)NC2CCCCC2)CCN1 (stereo not given) | inconclusive: 6.31 µM [inhibitor, partial curve, poor fit] | – |
| Cc1nc(Cn2cc(S(=O)(=O)N(C)C)ccc2=O)no1 | – | inactive: 27.4% |
| CN(CCOc1ccc(Br)cc1)C(=O)CSc1nnc(-c2ccc(Cl)cc2)n1C | – | inactive: -27.6% |
| CCSc1nc2c(c(=O)[nH]c(=O)n2C)n1Cc1ccc(Cl)cc1 | – | inactive: 2.4% |
| COCCCNC(=O)COc1ccc(-c2nccc(-c3ccccn3)n2)cc1 | – | inactive: -3.12% |
| CCc1ccc(C(=O)c2cnc3cc(OC)c(OC)cc3c2N2CCOCC2)cc1 | inconclusive: 39.8 µM [inhibitor, partial curve, poor fit] | – |
| COc1cc(-c2nnc3sc(Cc4ccc(Cl)cc4)nn23)cc(OC)c1OC | inconclusive: 14.1 µM [inhibitor, partial curve] | – |
| Cc1cnc(NC(=O)C(C)(C)Oc2ccc(Cl)cc2Cl)s1 | – | inactive: 16.5% |
| CCOc1ccc(-c2[nH]ncc2-c2ccc(OC)cc2)c(O)c1 | inconclusive: 39.8 µM [inhibitor, partial curve, poor fit] | – |

In a second layout: entries from further up
SMILES,Potency,"activity change, negative = inhibition"
CCc1nnc(SCC(=O)Nc2cc(Cl)ccc2C)n1-n1cccc1,–,inactive: 30.2%
CCc1ccc(N2CC(C(=O)OCC(=O)Nc3ccc(C#N)cc3)CC2=O)cc1 (stereo not given),"inconclusive: 89.1 µM [inhibitor, single point]",–
